Laboratory results from PubChem BioAssay AID2685 (National Center for Advancing Translational Sciences (NCATS), 2010).
The other results are listed elsewhere or left out. Shown are side measurements of this screen, not its main read-out; they come without a call. Most of these compounds were active or inconclusive in the main read-out, so they are no random draw. Potencies come from curve fits of mixed quality, noted in brackets.

Experiment: qHTS Assay for Lipid Storage Modulators in Drosophila S3 Cells;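 for cell number change: cells counted by Cell Tracker Red CMTPX staining in the red channel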
Conditions: BODIPY lipid droplet fluorescence, 18-24 h; for cell number change: measured here: cell count max response, cells fed with added oleic acid
In short: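 Drosophila S3 cells got compounds at several concentrations plus oleic acid (400 uM solution). Laser-scanning cytometry with 488 nm excitation read lipid droplets at 500-530 nm and cells at 575-640 nm. Percent activity was relative to 20 uM Triacsin C.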

[1] = measured here: cell number channel AC50, cells fed with added oleic acid
[2] = measured here: lipid fluorescence (Fed channel) AC50, cells fed with added oleic acid

SMILES	cell number change [%]	AC50 [1]	AC50 [2]
CC(C)CC(=O)N1CCN(S(=O)(=O)c2ccc(F)cc2)CC1	60	23100 nM [rising, single point]	
O=C(O)C1CCCCC1C(=O)NCc1ccccn1 (stereo not given)	92.3	29100 nM [rising, single point]	29100 nM [rising, single point]
O=C1OCC2=C1C(c1ccccc1)CC(=O)N2c1ccc(F)cc1 (stereo not given)	7.51		
Cn1c(=O)c2c(-c3ccccc3)n(-c3ccccc3O)cc2n(C)c1=O	17.4		1300 nM [rising, full curve]
CCC(C)c1ccccc1NC(=O)COC(=O)c1ccc2[nH]c3c(c2c1)CCCC3 (stereo not given)	-60.7	16400 nM [falling, partial curve, poor fit]	130 nM [falling, full curve, poor fit]
CCOC(=O)C1CCN(Cc2ccc(C(=O)OC)cc2)CC1	3.77	4110 nM [falling, single point]	
O=C(N/N=C/C(Br)=C/c1ccccc1)c1ccc([N+](=O)[O-])cc1	-26		32600 nM [falling, single point]
CC1CCCCN1CCNC(=O)C1CC(=O)N(c2ccc(F)c(Cl)c2)C1 (stereo not given)	-37.1	5170 nM [falling, partial curve]	5800 nM [falling, partial curve]
CCOC(=O)c1c(NC(=O)C2C3C=CC(CC3)C2C(=O)O)sc(C)c1CC (stereo not given)	11.5		116 nM [falling, full curve, poor fit]
CCn1c(O)c(N=NC(=O)c2cccs2)c2ccccc21	10.3	5.17 nM [rising, full curve, poor fit]	
COC(=O)c1c(-c2cccnc2)csc1NC(=O)c1cc(C)on1	12.4		
COCCN1CCN(C(=O)c2ccc3oc(CCc4ccccc4)nc3c2)CC1	-4.05		14600 nM [rising, single point]
CCOC(=O)Cc1csc2nc3sc(C)c(C)c3c(=O)n12	41.5	920 nM [rising, full curve, poor fit]	
CCCOc1nc2ccccc2cc1/C=C/C(=O)O	31.9	146 nM [rising, full curve, poor fit]	130 nM [rising, full curve, poor fit]
CC1CCCCC1NC(=O)CO/N=C/c1ccc(OC(F)F)cc1 (stereo not given)	20.9		447 nM [rising, full curve, poor fit]
N#CC1=C(SCC(=O)Nc2nccs2)NC(=O)CC1c1ccccc1 (stereo not given)	14.8	184 nM [rising, partial curve, poor fit]	517 nM [rising, partial curve, poor fit]
CC1=CC(=C(C#N)C#N)C=C(C)N1CCN1CCN(C(=O)Nc2ccc(Cl)c(Cl)c2)CC1	20.3	58 nM [rising, full curve, poor fit]	
CCOc1c(C(N)=O)c(-c2ccccc2)c2c(=O)[nH]c3ccccc3n12		731 nM [rising, full curve, poor fit]	
COc1cc(CN2CCCC(C(=O)c3ccc(SC)cc3)C2)cc(Cl)c1O (stereo not given)	-16.4		6510 nM [falling, single point]
CCOC(=O)c1sc(NC(=O)Nc2ccc(Cl)cc2)cc1C	-138	10300 nM [falling, partial curve]	8200 nM [falling, partial curve]

Arranged by molecular weight (ascending): some entries from above
SMILES	cell number change [%]	AC50 [1]	AC50 [2]
O=C1OCC2=C1C(c1ccccc1)CC(=O)N2c1ccc(F)cc1 (stereo not given)	7.51		
O=C(N/N=C/C(Br)=C/c1ccccc1)c1ccc([N+](=O)[O-])cc1	-26		32600 nM [falling, single point]
CCC(C)c1ccccc1NC(=O)COC(=O)c1ccc2[nH]c3c(c2c1)CCCC3 (stereo not given)	-60.7	16400 nM [falling, partial curve, poor fit]	130 nM [falling, full curve, poor fit]
CC1=CC(=C(C#N)C#N)C=C(C)N1CCN1CCN(C(=O)Nc2ccc(Cl)c(Cl)c2)CC1	20.3	58 nM [rising, full curve, poor fit]	

More compounds follow.

SMILES	cell number change [%]	AC50 [1]	AC50 [2]
CCOC(=O)c1c(NC(=O)COc2cccc3c2CCN(CC)C3=O)sc2c1CCC2	14.4		
Cc1oc(-c2ccccc2F)nc1CS(=O)(=O)CC(=O)NCCCN1CC(C)CC(C)C1 (stereo not given)	41.3	18400 nM [rising, single point]	
COc1cccc2c1cc1c(=O)n(CC(=O)NCCCN3CCN(C)CC3)nc(C)n12	4.48		
COc1ccc2c(c1)O[C@H](c1ccc3c(c1)OCO3)[C@@H](OC(=O)N[C@H](C)C1CCCCC1)C2=O	18.6		1640 nM [rising, partial curve]
CNC(=O)c1cc(Nc2nnc(C)c3ccccc23)ccc1OC		651 nM [rising, partial curve]	731 nM [rising, single point]
Clc1ccc(-n2nnnc2-c2cnc3ccc(Cl)cc3c2-c2ccccc2)cc1	13.4		5800 nM [rising, single point]
Cc1c2c(nc3nc4ccccc4n13)CC(C)(C)CC2=O	204	29100 nM [rising, single point]	
COc1cc(/C=c2\sc3nc(-c4ccncc4)nn3c2=O)ccc1OC(C)=O	11.6		29100 nM [rising, single point]
CCCCCCC(=O)Nc1c2c(nc3ccccc13)N(C)CC2	-4.58	206 nM [falling, full curve, poor fit]	651 nM [rising, single point]
COC(=O)[C@@]12CCCN1[C@H](c1ccc(-c3ccc(OC)cc3)c(OC)c1)[C@H]1C(=O)N(C)C(=O)[C@H]12			580 nM [falling, full curve, poor fit]
O=C(CN(c1ccccn1)S(=O)(=O)c1ccc(F)cc1)Nc1ccccc1	-3.12	651 nM [falling, single point]	4.61 nM [falling, full curve, poor fit]
CCOc1ccccc1OCCCCCc1c(C)n[nH]c1C	-28.9		13000 nM [falling, partial curve]
CC(OC(=O)c1ccc(NC(=O)CC#N)cc1)C(=O)NCCC1=CCCCC1 (stereo not given)	34.3	29100 nM [rising, single point]	18400 nM [rising, single point]
O=C(O)C1CSC(c2ccc(O)c([N+](=O)[O-])c2)N1 (stereo not given)	-17.3		29100 nM [rising, single point]
COc1cc(CNc2ccc(C)c(C)c2)cc(OC)c1OC			2310 nM [falling, full curve]
CC1CCN(C(c2cccs2)c2nnnn2Cc2ccccc2)CC1 (stereo not given)	94.4	16400 nM [rising, partial curve, poor fit]	1640 nM [rising, partial curve]
CCc1cc2c(cc3c(=O)n(CC(=O)NCCCN4CCCCCC4)nc(CC)n32)s1	-17.3		29100 nM [rising, single point]
Clc1ccc(-c2csc(N3CCSCC3)n2)cc1	-31.6	291 nM [falling, full curve, poor fit]	
O=C(CSC(=S)N1CCCC1)NCC(=O)Nc1ccc(F)c(F)c1	9.73		
COc1ccc(OCC(=O)N/N=C/C(C)=C/c2ccco2)c(Br)c1	147		

SMILES	cell number change [%]	AC50 [1]	AC50 [2]
CCCOC(=O)c1ccc(Nc2cc(C)nc3ncnn23)cc1	19.7		6510 nM [rising, single point]
CCCCCCCOc1ccc(-c2ccc(C#N)cn2)cc1	20.2		29100 nM [rising, single point]
Cc1ccc(C(=O)COC(=O)CN2C(=O)C3C4C=CC(C4)C3C2=O)cc1[N+](=O)[O-] (stereo not given)	13		7310 nM [rising, partial curve]
COc1cccc(C(=O)Nc2cc3c(cc2Cl)OCCCO3)c1	1.73		
Cc1noc(C)c1S(=O)(=O)Nc1ccc(O)c2c(=O)cc(-c3ccccc3Cl)oc12	-11.8		651 nM [falling, partial curve, poor fit]
COc1ccc(C(=O)N2CCN(S(=O)(=O)c3ccc(F)cc3)CC2)cc1OC	-1.31	146 nM [rising, single point]	
CC(=O)NCCC(=O)Nc1nc(C)c(Cc2ccc3c(c2)OCO3)s1	7.66		1840 nM [rising, full curve]
COc1ccc(/C=C/C(=O)NC(=S)NNC(=O)c2cc(OC)c(OC)c(OC)c2)cc1	2.92	1840 nM [falling, partial curve]	3660 nM [falling, full curve]
O=c1cc(O)c2ccccc2n1Cc1ccccc1Cl	16.8		1300 nM [rising, partial curve]
Cc1ccc(NC(=O)c2ccc3c(=O)n4c(nc3c2)CCCCC4)cc1F	-7.62		
O=S(=O)(NCCOc1ccccc1)c1ccc2ccccc2c1	15.1		517 nM [falling, full curve, poor fit]
CCC1(c2ccccc2)NC(=O)N(CC(=O)Nc2ccc(S(=O)(=O)N3CC(C)CC(C)C3)cc2)C1=O (stereo not given)	1.42	651 nM [falling, full curve, poor fit]	
Cc1onc(-c2ccccc2Cl)c1C(=O)NNC(=O)c1ccccc1F	1.9		
Cc1ccc(N=Cc2c(O)n(-c3ccc4c(c3)OCO4)c(=O)c3ccccc23)cc1			6510 nM [rising, partial curve]
O=C(NC(=S)Nc1ccc(S(=O)(=O)N2CCCCC2)cc1)c1cccs1	4.82		2060 nM [rising, partial curve, poor fit]
COc1ccc(S(=O)(=O)N2CCN(C(=O)C3CC3)CC2)cc1Br	5.51		4110 nM [falling, single point]
COc1ccc(CCn2c(O)c(C=Nc3cccc(F)c3)c(=O)[nH]c2=O)cc1OC	-0.427		
O=C(CN1CCCC1c1cccs1)Nc1cccc(S(=O)(=O)N2CCCC2)c1 (stereo not given)	-0.278		9200 nM [falling, partial curve]
CC(=O)c1cccc(NC(=O)CN(C)Cc2ccc(OC(F)F)cc2)c1	-17.9		29100 nM [falling, single point]
